For series [1], the target named is CsoR (CsoRSl) wild type (Streptomyces lividans 1326) (UniProt D6EK73). Description: CD. As to conditions: SEC: same buffer, recombinant protein.
In series [2] the target is CsoRSl R54A (Streptomyces lividans 1326) (UniProt D6EK73). The experiment in a line: EMSA. The note with it: apo, no clear band shift; EMSA: same buffer, room temperature, 30 min, 6% PAGE in TBE; recombinant protein.
In series [3] the target is CsoRSl R57A (Streptomyces lividans 1326) (UniProt D6EK73). Description: EMSA. The note with it: apo, 10 uM protein, 1 uM DNA; EMSA: same buffer, room temperature, 30 min, 6% PAGE in TBE; recombinant protein.
Series [4] addresses CsoRSl Q81A (Streptomyces lividans 1326) (UniProt D6EK73). The experiment in a line: EMSA. As to conditions: apo, 10 uM protein, 1 uM DNA; EMSA: same buffer, room temperature, 30 min, 6% PAGE in TBE; recombinant protein.
Series [5] deals with CsoRSl R57A (Streptomyces lividans 1326) (UniProt D6EK73). Description: ITC. As to conditions: apo; ITC: 10 mM HEPES, 150 mM NaCl, pH 7.5, 25 C, 100 uM DNA into 10 uM CsoR tetramer; recombinant protein.
Series [6] concerns the target CsoRSl Q81A (Streptomyces lividans 1326) (UniProt D6EK73). Description: ITC. As to conditions: apo; ITC: 10 mM HEPES, 150 mM NaCl, pH 7.5, 25 C, 100 uM DNA into 10 uM CsoR tetramer; recombinant protein.
Series [7] concerns the target CsoRSl R54A (Streptomyces lividans 1326) (UniProt D6EK73). The experiment in a line: size-exclusion chromatography. As to conditions: apo, no complex peak; SEC: same buffer; recombinant protein.
The target of series [8] is CsoRSl R129A (Streptomyces lividans 1326) (UniProt D6EK73). Description: size-exclusion chromatography. The note with it: apo, clear 2:1 complex; SEC: same buffer; recombinant protein.
For series [9], the target named is CsoRSl R57A (Streptomyces lividans 1326) (UniProt D6EK73). The experiment in a line: size-exclusion chromatography. As to conditions: apo, free DNA peak only; SEC: same buffer; recombinant protein.
The target of series [10] is CsoRSl R132A (Streptomyces lividans 1326) (UniProt D6EK73). The experiment in a line: size-exclusion chromatography. The note with it: apo, 2:1 complex, lower complex/free ratio; SEC: same buffer; recombinant protein.
In series [11] the target is CsoRSl Q81A (Streptomyces lividans 1326) (UniProt D6EK73). The experiment in a line: size-exclusion chromatography. The note with it: apo, free DNA peak only; SEC: same buffer; recombinant protein.

For at least one entry, the source does not settle the construct or the ends of the probe. For part of these data: A negative result means that nothing was seen under these conditions. For part of these data: A weaker result is weaker than the reference pair of the same experiment.

Turning to “CGGACAAATACCCCTGGTGGGTATATATGG (double strand) [csoR-EXT]”, the binding result in series [1] (Cu(I)-bound, no change at 263.5 nm) is given as “no binding”; in series [1] (apo, 263.5 nm increase saturates at 2:1) it was “binds”; in series [2], “binds more weakly”; in [3], “no binding”; in series [4], “no binding”; in [5] it was “no binding”. Besides, the binding result is given as “no binding” in series [6]; “binds more weakly” in series [7]; “binds” in [8]; “no binding” in series [9]; “binds more weakly” in series [10]; “no binding” in series [11].

Source of the values: paper PMC3902906.
